No constants are given. Whether binding was seen depends on the method and setting. In cells and extracts the contact can be indirect. These calls come from enrichment with a bait or labelling near it, and not all partners need be listed.

Amino acid sequences for entries named in this document (tags omitted).
UniProt P46937: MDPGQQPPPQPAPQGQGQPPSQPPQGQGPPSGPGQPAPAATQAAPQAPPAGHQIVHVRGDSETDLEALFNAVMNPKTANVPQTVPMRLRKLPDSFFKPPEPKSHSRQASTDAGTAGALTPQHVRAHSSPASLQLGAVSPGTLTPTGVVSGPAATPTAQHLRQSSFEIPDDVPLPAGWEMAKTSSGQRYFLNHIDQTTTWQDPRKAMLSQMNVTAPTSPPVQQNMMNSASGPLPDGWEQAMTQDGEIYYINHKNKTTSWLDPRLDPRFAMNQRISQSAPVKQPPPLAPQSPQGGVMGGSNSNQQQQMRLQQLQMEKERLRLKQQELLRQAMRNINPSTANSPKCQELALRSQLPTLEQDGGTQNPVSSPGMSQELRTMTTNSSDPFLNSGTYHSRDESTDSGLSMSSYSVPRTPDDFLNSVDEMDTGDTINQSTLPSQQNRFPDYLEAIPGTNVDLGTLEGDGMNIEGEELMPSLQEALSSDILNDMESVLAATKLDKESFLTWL
UniProt O95835: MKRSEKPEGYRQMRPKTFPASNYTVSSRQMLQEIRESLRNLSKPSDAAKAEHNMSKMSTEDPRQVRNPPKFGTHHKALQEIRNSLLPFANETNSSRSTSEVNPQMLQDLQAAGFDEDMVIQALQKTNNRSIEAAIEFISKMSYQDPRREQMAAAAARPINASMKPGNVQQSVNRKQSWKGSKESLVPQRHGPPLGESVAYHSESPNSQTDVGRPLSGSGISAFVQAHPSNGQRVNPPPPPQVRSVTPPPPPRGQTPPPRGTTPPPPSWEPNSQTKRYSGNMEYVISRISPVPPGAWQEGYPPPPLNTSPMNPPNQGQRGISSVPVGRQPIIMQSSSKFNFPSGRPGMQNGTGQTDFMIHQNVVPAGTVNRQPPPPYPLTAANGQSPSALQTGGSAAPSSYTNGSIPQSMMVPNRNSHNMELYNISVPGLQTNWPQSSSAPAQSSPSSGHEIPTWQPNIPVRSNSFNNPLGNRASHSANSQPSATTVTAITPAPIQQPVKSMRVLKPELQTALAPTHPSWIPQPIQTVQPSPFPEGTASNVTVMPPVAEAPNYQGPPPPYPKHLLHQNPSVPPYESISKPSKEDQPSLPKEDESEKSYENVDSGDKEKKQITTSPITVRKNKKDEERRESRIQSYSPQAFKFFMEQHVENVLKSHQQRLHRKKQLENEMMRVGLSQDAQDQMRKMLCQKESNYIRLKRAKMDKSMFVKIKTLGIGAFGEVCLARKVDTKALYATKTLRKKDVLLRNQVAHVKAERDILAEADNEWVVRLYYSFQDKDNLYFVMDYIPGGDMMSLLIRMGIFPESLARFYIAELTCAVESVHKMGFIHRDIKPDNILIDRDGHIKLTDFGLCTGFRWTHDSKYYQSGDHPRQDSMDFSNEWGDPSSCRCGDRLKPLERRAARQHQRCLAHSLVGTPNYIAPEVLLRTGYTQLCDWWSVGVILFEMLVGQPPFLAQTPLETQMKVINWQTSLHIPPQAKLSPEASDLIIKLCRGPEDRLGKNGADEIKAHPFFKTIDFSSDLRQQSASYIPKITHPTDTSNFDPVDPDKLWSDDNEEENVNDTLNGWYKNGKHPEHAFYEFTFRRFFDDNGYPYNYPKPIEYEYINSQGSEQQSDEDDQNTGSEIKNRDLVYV

Substrate in assay [1]: N terminal Strep-HA-tagged YAP1 (human) (UniProt P46937)
As to the kind of experiment: affinity purification with mass spectrometry.

Substrate in assay [2]: N terminal Strep-HA-tagged YAP1 (human) (UniProt P46937)
The assay is described as follows: affinity purification with mass spectrometry + native gel or EMSA. (In EMSA bound probe runs differently from free probe, usually more slowly.)

Substrate in assay [3]: N terminal Strep-HA-tagged LATS1 (human) (UniProt O95835)
The assay is described as follows: affinity purification with mass spectrometry.

Substrate in assay [4]: N terminal Strep-HA-tagged YAP1 (human), P46937
As to the kind of experiment: affinity purification with mass spectrometry + native gel or EMSA. The note with it: remark: other sources report otherwise.

Substrate in assay [5]: N terminal Strep-HA-tagged YAP1 (human), P46937
The assay is described as follows: affinity purification with mass spectrometry. Conditions: remark: other sources report otherwise.

B1: 1433F (protein, UniProt Q04917 1-246)
chain: MGDREQLLQRARLAEQAERYDDMASAMKAVTELNEPLSNEDRNLLSVAYKNVVGARRSSWRVISSIEQKTMADGNEKKLEKVKAYREKIEKELETVCNDVLSLLDKFLIKNCNDFQYESKVFYLKMKGDYYRYLAEVASGEKKNSVVEASEAAYKEAFEISKEQMQPTHPIRLGLALNFSVFYYEIQNAPEQACLLAKQAFDDAIAELDTLNEDSYKDSTLIMQLLRDNLTLWTSDQQDEEAGEGN
As for B1, in assay [1], the binding entry was “binds”.

B2: AMOTL1 (protein, UniProt Q8IY63 1-956)
chain: MWRAKLRRGTCEPAVKGSPSACYSPSSPVQVLEDSTYFSPDFQLYSGRHETSALTVEATSSIREKVVEDPLCNFHSPNFLRISEVEMRGSEDAAAGTVLQRLIQEQLRYGTPTENMNLLAIQHQATGSAGPAHPTNNFSSTENLTQEDPQMVYQSARQEPQGQEHQVDNTVMEKQVRSTQPQQNNEELPTYEEAKAQSQFFRGQQQQQQQQGAVGHGYYMAGGTSQKSRTEGRPTVNRANSGQAHKDEALKELKQGHVRSLSERIMQLSLERNGAKQHLPGSGNGKGFKVGGGPSPAQPAGKVLDPRGPPPEYPFKTKQMMSPVSKTQEHGLFYGDQHPGMLHEMVKPYPAPQPVRTDVAVLRYQPPPEYGVTSRPCQLPFPSTMQQHSPMSSQTSSASGPLHSVSLPLPLPMALGAPQPPPAASPSQQLGPDAFAIVERAQQMVEILTEENRVLHQELQGYYDNADKLHKFEKELQRISEAYESLVKSTTKRESLDKAMRNKLEGEIRRLHDFNRDLRDRLETANRQLSSREYEGHEDKAAEGHYASQNKEFLKEKEKLEMELAAVRTASEDHRRHIEILDQALSNAQARVIKLEEELREKQAYVEKVEKLQQALTQLQSACEKREQMERRLRTWLERELDALRTQQKHGNGQPANMPEYNAPALLELVREKEERILALEADMTKWEQKYLEESTIRHFAMNAAATAAAERDTTIINHSRNGSYGESSLEAHIWQEEEEVVQANRRCQDMEYTIKNLHAKIIEKDAMIKVLQQRSRKDAGKTDSSSLRPARSVPSIAAATGTHSRQTSLTSSQLAEEKKEEKTWKGSIGLLLGKEHHEHASAPLLPPPPTSALSSIASTTAASSAHAKTGSKDSSTQTDKSAELFWPSMASLPSRGRLSTTPAHSPVLKHPAAKGTAEKLENSPGHGKSPDHRGRVSSLLHKPEFPDGEMMEVLI
As to B2, the binding result in assay [2] is recorded as “binds”.

B3: PTPN14 (protein, UniProt Q15678 1-1187)
chain: MPFGLKLRRTRRYNVLSKNCFVTRIRLLDSNVIECTLSVESTGQECLEAVAQRLELRETHYFGLWFLSKSQQARWVELEKPLKKHLDKFANEPLLFFGVMFYVPNVSWLQQEATRYQYYLQVKKDVLEGRLRCTLDQVIRLAGLAVQADFGDYNQFDSQDFLREYVLFPMDLALEEAVLEELTQKVAQEHKAHSGILPAEAELMYINEVERLDGFGQEIFPVKDNHGNCVHLGIFFMGIFVRNRIGRQAVIYRWNDMGNITHNKSTILVELINKEETALFHTDDIENAKYISRLFATRHKFYKQNKICTEQSNSPPPIRRQPTWSRSSLPRQQPYILPPVHVQCGEHYSETHTSQDSIFHGNEEALYCNSHNSLDLNYLNGTVTNGSVCSVHSVNSLNCSQSFIQASPVSSNLSIPGSDIMRADYIPSHRHSAIIVPSYRPTPDYETVMRQMKRGILHTDSQSQSLRNLNIINTHAYNQPEDLVYSQPEMRERHPYTVPYGPQGVYSNKLVSPSDQRNPKNNVVPSKPGASAISHTVSTPELANMQLQGSHNYSTAHMLKNYLFRPPPPYPRPRPATSTPDLASHRHKYVSGSSPDLVTRKVQLSVKTFQEDSSPVVHQSLQEVSEPLTATKHHGTVNKRHSLEVMNSMVRGMEAMTLKSLHLPMARRNTLREQGPPEEGSGSHEVPQLPQYHHKKTFSDATMLIHSSESEEEEEEAPESVPQIPMLREKMEYSAQLQAALARIPNKPPPEYPGPRKSVSNGALRQDQASLPPAMARARVLRHGPAKAISMSRTDPPAVNGASLGPSISEPDLTSVKERVKKEPVKERPVSEMFSLEDSIIEREMMIRNLEKQKMAGLEAQKRPLMLAALNGLSVARVSGREENRVDATRVPMDERFRTLKKKLEEGMVFTEYEQIPKKKANGIFSTAALPENAERSRIREVVPYEENRVELIPTKENNTGYINASHIKVVVGGAEWHYIATQGPLPHTCHDFWQMVWEQGVNVIAMVTAEEEGGRTKSHRYWPKLGSKHSSATYGKFKVTTKFRTDSVCYATTGLKVKHLLSGQERTVWHLQYTDWPDHGCPEDVQGFLSYLEEIQSVRRHTNSMLEGTKNRHPPIVVHCSAGVGRTGVLILSELMIYCLEHNEKVEVPMMLRLLREQRMFMIQTIAQYKFVYQVLIQFLQNSRLI
Turning to B3, the binding entry in assay [3] is reported as “binds”.

B4: RASFF8 (protein, UniProt Q8NHQ8 1-419)
chain: MELKVWVDGVQRIVCGVTEVTTCQEVVIALAQAIGRTGRYTLIEKWRDTERHLAPHENPIISLNKWGQYASDVQLILRRTGPSLSERPTSDSVARIPERTLYRQSLPPLAKLRPQIDKSIKRREPKRKSLTFTGGAKGLMDIFGKGKETEFKQKVLNNCKTTADELKKLIRLQTEKLQSIEKQLESNEIEIRFWEQKYNSNLEEEIVRLEQKIKRNDVEIEEEEFWENELQIEQENEKQLKDQLQEIRQKITECENKLKDYLAQIRTMESGLEAEKLQREVQEAQVNEEEVKGKIGKVKGEIDIQGQQSLRLENGIKAVERSLGQATKRLQDKEQELEQLTKELRQVNLQQFIQQTGTKVTVLPAEPIEIEASHADIEREAPFQSGSLKRPGSSRQLPSNLRILQNPISSGFNPEGIYV
Take B4: the binding entry in assay [1] is “binds”.

B5: TEAD3, Q99594 1-435 (protein)
chain: MASNSWNASSSPGEAREDGPEGLDKGLDNDAEGVWSPDIEQSFQEALAIYPPCGRRKIILSDEGKMYGRNELIARYIKLRTGKTRTRKQVSSHIQVLARKKVREYQVGIKAMNLDQVSKDKALQSMASMSSAQIVSASVLQNKFSPPSPLPQAVFSTSSRFWSSPPLLGQQPGPSQDIKPFAQPAYPIQPPLPPTLSSYEPLAPLPSAAASVPVWQDRTIASSRLRLLEYSAFMEVQRDPDTYSKHLFVHIGQTNPAFSDPPLEAVDVRQIYDKFPEKKGGLKELYEKGPPNAFFLVKFWADLNSTIQEGPGAFYGVSSQYSSADSMTISVSTKVCSFGKQVVEKVETEYARLENGRFVYRIHRSPMCEYMINFIHKLKHLPEKYMMNSVLENFTILQVVTSRDSQETLLVIAFVFEVSTSEHGAQHHVYKLVKD
Take B5: the binding entry in assay [4] and in assay [5] was “binds” throughout.

Source of the values: publication doi:10.1101/2022.03.13.484137.
